Reference: patent US20110245473A1
Numbering of substitutions follows the chain as printed. These are yes or no findings as the source states them, for the method shown. Some results given as binding are weak or reduced against the parent protein; the word gives no strength. Each block holds one binder with its values, some of them ahead of it.

Protein sequences, listed by entry. Tags and fused reporters are not part of them. Lines headed by an entry give the natural chain unless they say otherwise; changes in a name come on top. Residues count along the entry.
UniProt P08887, residues 20-358: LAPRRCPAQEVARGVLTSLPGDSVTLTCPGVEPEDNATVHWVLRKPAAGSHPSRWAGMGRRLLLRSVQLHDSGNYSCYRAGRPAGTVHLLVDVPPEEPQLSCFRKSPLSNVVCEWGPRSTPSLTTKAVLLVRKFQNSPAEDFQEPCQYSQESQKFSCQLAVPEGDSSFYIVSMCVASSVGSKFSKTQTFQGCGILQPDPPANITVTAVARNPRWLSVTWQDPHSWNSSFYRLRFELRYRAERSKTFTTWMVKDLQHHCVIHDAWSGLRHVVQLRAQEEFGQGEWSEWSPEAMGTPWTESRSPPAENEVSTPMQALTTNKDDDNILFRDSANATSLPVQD
UniProt P55899: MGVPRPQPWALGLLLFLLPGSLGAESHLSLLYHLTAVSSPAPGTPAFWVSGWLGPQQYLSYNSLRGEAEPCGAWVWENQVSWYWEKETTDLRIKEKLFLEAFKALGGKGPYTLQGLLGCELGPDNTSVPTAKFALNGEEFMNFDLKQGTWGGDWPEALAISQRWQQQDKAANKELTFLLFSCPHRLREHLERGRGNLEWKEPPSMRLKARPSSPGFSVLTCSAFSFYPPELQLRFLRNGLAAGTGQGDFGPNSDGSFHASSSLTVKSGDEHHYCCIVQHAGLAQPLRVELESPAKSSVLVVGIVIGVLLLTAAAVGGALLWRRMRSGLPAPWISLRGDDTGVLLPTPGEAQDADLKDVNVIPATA

Assays:
[1] = target: recombinant human IL-6R sR (R&D systems) (human) (UniProt P08887); test: SPR (Biacore T100, 25 °C): antibody captured on Protein A, rhIL-6sR as analyte
[2] = target: recombinant human IL-6R sR (R&D systems) (human) (UniProt P08887); test: SPR (Biacore T100), antibody captured on Protein A, rhIL-6sR as analyte, 25°C
[3] = target: soluble human FcRn (complex of FcRn and β2-microglobulin) (human) (UniProt P55899); test: SPR (Biacore 3000), antibody captured, human FcRn as analyte, pH 6.0

- binding [1]: binds
B1: RD-6 (antibody, V domains shown)
VH: QVQLQESGPGLVRPSQTLSLTCTVSGYSITSDHAWSWVRQPPGRGLEWIGYISYSGITTYNPSLKSRVTMLRDTSKNQFSLRLSSVTAADTAVYYCARLLARATAMDYWGQGSLVTVSS
VL: DIQMTQSPSSLSASVGDRVTITCRASQDISSYLNWYQQKPGKAPKLLIYYTSRLHSGVPSRFSGSGSGTDFTFTISSLQPEDIATYYCQQGNTLPYTFGQGTKVEIK

- binding [2]: binds
B2: RDC-7 (antibody, V domains shown)
VH: B1 VH with L99T, A103I
VL: B1 VL

- binding [2]: binds
B3: RDC-8 (antibody, V domains shown)
VH: B1 VH with A103I
VL: B1 VL

- binding [2]: binds
B4: RDC-4 (antibody, V domains shown)
VH: B1 VH with L99T
VL: B1 VL

- binding [3]: binds
B5: anti-IL-31 receptor antibody H0L0 with M58 constant region (antibody)
heavy: QVQLVQSGAEVKKPGASVKVSCKASGYTFTGYIMNWVRQAPGQGLEWMGLINPYNGGTSYNQKFKGRVTITADESTSTAYMELSSLRSEDTAVYYCARDGYDDGPYTMDYWGQGTLVTVSASTKGPSVFPLAPSSKSTSGGTAALGCLVKDYFPEPVTVSWNSGALTSGVHTFPAVLQSSGLYSLSSVVTVPSSNFGTQTYTCNVDHKPSNTKVDKTVERKSCVECPPCPAPPVAGPSVFLFPPKPKDTLMISRTPEVTCVVVDVSQEDPEVQFNWYVDGVEVHNAKTKPREEQFNSTFRVVSVLTVVHQDWLNGKEYKCKVSNKGLPAPIEKTISKTKGQPREPQVYTLPPSQEEMTKNQVSLTCLVKGFYPSDIAVEWESNGQPENNYKTTPPMLDSDGSFFLYSKLTVDKSRWQEGNVFSCSVMHEALHNHYTQKSLSLSP
VL: DIQMTQSPSSLSASVGDRVTITCRTSENIYSFLAWYQQKPGKAPKLLIYNAKTLAKGVPSRFSGSGSGTDFTLTISSLQPEDFATYYCQHHYESPLTFGGGTKVEIK
